# The supplement of paper PMC10849652
# The chains behind the UniProt entries cited, without tags or fusion partners. Where a name states a change or a piece, a line headed by the entry shows the natural chain unless it says otherwise.
# UniProt Q9H5J4: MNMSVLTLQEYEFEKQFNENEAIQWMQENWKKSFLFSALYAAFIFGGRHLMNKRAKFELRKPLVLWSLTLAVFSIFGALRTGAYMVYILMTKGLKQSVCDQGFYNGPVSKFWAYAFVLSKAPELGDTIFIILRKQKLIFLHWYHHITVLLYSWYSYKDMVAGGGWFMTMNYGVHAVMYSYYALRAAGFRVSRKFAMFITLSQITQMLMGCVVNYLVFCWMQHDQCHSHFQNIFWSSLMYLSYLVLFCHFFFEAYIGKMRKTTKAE
# UniProt Q9BUP0: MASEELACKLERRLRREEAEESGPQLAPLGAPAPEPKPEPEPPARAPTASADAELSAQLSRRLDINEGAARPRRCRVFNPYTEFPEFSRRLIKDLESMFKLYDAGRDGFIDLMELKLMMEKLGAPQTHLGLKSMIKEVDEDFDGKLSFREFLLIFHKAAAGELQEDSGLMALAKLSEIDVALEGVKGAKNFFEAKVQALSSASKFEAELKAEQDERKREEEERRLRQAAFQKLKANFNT
# UniProt P24534: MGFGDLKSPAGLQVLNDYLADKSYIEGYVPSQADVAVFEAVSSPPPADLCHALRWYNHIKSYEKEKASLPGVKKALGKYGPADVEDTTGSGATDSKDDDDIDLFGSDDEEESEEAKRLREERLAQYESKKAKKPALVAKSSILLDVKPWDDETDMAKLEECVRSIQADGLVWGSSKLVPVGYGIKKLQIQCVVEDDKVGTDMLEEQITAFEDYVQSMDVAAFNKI
# UniProt P50402: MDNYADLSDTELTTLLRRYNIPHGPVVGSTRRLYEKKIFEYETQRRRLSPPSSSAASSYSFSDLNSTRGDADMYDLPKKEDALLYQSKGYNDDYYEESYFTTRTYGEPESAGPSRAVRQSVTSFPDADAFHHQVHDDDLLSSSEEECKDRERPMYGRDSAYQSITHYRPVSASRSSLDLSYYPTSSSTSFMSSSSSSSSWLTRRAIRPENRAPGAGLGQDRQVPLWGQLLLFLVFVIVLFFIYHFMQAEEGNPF
# UniProt O75822, whole entry, looked up: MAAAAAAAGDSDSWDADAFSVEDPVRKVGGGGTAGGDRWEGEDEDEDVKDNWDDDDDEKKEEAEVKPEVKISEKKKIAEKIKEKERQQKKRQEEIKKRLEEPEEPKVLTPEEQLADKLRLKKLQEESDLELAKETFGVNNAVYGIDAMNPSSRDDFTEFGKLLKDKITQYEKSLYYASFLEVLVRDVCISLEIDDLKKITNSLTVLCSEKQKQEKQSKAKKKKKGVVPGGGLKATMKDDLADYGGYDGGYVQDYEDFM
# UniProt Q9Y227: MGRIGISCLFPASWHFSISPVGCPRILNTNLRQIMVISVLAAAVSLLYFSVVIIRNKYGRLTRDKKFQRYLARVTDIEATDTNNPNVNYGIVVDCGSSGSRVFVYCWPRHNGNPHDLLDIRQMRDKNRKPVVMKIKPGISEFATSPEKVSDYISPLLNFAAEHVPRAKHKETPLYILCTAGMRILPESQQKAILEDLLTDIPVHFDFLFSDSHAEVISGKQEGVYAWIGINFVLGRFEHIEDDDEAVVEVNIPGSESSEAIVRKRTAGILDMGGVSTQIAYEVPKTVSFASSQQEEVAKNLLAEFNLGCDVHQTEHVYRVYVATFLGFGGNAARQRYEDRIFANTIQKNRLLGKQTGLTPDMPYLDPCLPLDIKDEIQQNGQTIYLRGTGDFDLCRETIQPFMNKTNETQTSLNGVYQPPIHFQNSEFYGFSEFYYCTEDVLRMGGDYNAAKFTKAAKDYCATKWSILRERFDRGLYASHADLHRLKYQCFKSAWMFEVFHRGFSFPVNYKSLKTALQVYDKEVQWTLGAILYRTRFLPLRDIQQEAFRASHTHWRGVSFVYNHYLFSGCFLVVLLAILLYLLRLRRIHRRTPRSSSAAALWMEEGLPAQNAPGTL
# UniProt P60842, whole entry, looked up: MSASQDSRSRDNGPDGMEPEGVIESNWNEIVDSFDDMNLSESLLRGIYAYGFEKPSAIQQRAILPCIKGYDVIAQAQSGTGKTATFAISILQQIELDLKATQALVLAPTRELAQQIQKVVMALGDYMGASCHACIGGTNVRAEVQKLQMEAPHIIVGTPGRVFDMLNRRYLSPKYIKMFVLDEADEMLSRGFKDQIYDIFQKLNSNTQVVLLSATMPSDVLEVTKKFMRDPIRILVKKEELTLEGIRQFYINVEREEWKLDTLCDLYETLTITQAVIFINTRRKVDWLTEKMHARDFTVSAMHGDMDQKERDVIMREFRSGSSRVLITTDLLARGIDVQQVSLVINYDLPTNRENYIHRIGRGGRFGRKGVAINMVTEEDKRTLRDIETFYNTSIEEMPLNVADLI
# UniProt Q9Y6B2: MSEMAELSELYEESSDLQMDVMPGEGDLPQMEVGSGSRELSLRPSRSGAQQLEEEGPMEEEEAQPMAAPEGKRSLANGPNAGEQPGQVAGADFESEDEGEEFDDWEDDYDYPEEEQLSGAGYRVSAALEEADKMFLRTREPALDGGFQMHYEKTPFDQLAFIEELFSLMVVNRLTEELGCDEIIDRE
# UniProt Q7Z2Z2: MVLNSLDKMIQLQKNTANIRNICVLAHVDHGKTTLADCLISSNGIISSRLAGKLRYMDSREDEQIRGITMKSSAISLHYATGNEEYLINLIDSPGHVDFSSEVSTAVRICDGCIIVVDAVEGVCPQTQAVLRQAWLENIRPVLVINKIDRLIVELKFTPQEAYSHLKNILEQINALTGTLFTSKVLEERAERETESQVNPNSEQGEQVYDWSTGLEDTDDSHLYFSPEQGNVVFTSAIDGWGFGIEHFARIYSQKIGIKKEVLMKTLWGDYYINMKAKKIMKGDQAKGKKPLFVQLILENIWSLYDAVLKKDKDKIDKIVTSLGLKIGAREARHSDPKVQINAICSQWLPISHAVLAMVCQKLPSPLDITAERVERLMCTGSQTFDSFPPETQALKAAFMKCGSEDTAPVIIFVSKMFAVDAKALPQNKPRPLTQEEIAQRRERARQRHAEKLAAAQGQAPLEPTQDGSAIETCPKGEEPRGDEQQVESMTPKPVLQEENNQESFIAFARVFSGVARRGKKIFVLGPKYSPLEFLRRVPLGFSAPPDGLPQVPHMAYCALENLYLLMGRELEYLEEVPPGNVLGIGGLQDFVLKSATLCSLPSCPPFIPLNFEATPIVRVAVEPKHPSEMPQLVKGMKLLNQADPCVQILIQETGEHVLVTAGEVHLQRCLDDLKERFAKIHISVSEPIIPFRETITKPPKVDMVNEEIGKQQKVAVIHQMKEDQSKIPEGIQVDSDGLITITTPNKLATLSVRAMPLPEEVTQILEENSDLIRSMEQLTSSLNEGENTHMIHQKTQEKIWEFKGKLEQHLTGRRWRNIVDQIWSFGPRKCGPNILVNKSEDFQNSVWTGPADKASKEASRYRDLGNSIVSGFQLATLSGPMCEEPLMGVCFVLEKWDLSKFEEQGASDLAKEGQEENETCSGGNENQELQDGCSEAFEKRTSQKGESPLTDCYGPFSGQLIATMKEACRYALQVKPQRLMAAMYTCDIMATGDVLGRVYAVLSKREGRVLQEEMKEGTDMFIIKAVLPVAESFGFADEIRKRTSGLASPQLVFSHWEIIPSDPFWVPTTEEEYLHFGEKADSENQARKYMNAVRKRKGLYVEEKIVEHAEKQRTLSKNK
# UniProt Q9NYP7: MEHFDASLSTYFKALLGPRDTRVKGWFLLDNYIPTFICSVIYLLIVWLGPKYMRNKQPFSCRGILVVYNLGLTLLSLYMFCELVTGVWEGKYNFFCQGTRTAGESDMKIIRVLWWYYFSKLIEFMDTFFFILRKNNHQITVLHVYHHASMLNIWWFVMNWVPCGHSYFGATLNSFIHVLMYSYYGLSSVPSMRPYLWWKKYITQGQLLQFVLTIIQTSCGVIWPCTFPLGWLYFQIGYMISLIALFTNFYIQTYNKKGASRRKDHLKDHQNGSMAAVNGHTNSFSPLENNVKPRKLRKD
# UniProt Q9NQZ7: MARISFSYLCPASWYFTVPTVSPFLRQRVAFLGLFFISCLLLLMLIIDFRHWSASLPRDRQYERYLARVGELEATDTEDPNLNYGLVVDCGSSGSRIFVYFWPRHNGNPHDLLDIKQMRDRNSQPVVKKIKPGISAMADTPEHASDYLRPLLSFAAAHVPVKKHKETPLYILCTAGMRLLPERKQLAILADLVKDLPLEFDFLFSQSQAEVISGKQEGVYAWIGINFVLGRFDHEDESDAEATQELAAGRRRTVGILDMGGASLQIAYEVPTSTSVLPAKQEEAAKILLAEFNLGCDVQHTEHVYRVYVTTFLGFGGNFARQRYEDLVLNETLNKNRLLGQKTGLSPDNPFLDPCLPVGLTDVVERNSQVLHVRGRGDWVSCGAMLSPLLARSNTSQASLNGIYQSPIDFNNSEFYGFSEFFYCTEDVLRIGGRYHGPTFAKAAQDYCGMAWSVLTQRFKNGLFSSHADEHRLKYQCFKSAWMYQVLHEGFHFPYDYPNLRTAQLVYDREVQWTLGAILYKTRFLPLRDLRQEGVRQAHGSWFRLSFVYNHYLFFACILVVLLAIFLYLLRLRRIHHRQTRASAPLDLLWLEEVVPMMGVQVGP
# UniProt P68104, whole entry, looked up: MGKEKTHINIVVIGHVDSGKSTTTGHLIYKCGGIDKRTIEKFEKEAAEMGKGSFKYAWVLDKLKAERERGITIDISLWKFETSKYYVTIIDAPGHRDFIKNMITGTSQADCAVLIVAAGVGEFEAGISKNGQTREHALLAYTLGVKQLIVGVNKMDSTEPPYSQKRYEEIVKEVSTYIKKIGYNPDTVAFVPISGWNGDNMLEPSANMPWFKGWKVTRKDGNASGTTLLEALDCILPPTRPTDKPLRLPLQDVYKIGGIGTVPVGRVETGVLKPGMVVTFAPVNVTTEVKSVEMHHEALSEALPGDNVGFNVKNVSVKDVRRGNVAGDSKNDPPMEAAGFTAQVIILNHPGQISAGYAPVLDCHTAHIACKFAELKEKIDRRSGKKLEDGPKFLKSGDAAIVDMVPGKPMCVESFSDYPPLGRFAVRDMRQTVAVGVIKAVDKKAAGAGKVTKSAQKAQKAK
# UniProt P32519: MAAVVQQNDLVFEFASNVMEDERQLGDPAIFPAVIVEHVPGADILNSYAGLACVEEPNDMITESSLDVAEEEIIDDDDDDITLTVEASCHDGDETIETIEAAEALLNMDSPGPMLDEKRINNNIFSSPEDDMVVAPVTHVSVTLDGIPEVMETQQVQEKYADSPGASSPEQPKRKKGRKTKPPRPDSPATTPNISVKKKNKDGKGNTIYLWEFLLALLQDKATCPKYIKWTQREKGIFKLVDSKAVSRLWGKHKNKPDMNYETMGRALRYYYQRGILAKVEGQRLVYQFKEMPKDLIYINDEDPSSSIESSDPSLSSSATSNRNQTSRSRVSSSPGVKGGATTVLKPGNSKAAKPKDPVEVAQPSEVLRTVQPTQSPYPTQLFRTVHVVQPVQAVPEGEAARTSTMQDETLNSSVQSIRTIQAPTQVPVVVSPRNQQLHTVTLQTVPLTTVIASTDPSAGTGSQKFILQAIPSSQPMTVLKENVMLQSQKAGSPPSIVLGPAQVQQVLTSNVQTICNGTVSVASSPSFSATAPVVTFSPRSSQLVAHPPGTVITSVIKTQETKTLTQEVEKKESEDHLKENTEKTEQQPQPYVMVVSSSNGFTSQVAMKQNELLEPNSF
# UniProt P18146, whole entry, looked up: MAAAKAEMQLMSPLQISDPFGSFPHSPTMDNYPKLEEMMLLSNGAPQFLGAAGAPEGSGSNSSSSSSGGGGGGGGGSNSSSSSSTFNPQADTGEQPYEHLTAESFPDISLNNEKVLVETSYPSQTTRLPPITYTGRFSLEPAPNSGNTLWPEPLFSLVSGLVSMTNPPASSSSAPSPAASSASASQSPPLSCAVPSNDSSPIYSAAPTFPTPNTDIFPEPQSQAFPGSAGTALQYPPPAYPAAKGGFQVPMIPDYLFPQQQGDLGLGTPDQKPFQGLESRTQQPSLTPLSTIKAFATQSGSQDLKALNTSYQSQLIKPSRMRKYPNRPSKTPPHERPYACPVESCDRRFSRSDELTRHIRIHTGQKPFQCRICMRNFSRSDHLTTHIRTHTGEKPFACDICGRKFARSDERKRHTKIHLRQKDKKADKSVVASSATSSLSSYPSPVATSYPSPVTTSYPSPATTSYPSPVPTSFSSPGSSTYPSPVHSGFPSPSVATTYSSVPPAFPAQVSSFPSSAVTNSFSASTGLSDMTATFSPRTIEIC
# The list shows a part of the results.
# How the values were obtained:
# Test in all cases: log2 fold change, soluble protein after heating vs DMSO (PISA); higher = thermal stabilisation; K562 cells, 10 uM, 30 min; active = over 0.2 and 3.5 SD of the protein, either way, in both replicates (recomputed)
# [1] = compound: CS(=O)(=O)c1ccc(-c2cnc(N)c(C(=O)Nc3ccccc3)n2)cc1
# Procedure, shortened: (§1)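 Aliquots of K562 cells (2×10^6 cells/mL) treated with 10 μM compound for 30 min were heated for 3 min over 48°C-58°C. After pooling and extraction in PBS with 0.5% NP-40 at 4°C, soluble protein from a 21,000xg, 90 min spin was quantified by TMTpro 16plex LC-MS/MS with channel sums equalised. Thermal stability is expressed against control samples, from duplicates, as a log2 fold change.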
# [2] = compound: C[C@@H](Oc1cc(-c2cnn(C3CCNCC3)c2)cnc1N)c1c(Cl)ccc(F)c1Cl [crizotinib]
# Procedure, shortened: as §1
# [3] = compound: C[C@H](C1=CC=C(C=C1)C(=O)NC2=C3C=CNC3=NC=C2)N
# Procedure, shortened: as §1
# [4] = compound: C[C@H](Nc1ncnc2nc[nH]c12)c1cc2cccc(Cl)c2c(=O)n1-c1ccccc1 [duvelisib]
# Procedure, shortened: as §1
# [5] = compound: Cc1cc(Nc2cc(N3CCN(C)CC3)nc(Sc3ccc(NC(=O)C4CC4)cc3)n2)n[nH]1 [tozasertib]
# Procedure, shortened: as §1
# [6] = compound: Cc1cc(SCc2sc(-c3ccc(C(F)(F)F)cc3)nc2C)ccc1OCC(=O)O
# Procedure, shortened: as §1
# [7] = compound: Cc1ccc(-n2nc(C(C)(C)C)cc2NC(=O)Nc2ccc(OCCN3CCOCC3)c3ccccc23)cc1 [doramapimod]
# Procedure, shortened: as §1
# [8] = compound: Cc1ccc(C(=O)N(CCCN)[C@@H](c2nc3cc(Cl)ccc3c(=O)n2Cc2ccccc2)C(C)C)cc1 [ispinesib]
# Procedure, shortened: as §1
# [9] = compound: Cc1ccc(NC(=O)c2ccc(CN3CC[C@H](N(C)C)C3)c(C(F)(F)F)c2)cc1Nc1nccc(-c2cncnc2)n1 [bafetinib]
# Procedure, shortened: as §1
# [10] = compound: Cc1cn(-c2cc(NC(=O)c3ccc(C)c(Nc4nccc(-c5cccnc5)n4)c3)cc(C(F)(F)F)c2)cn1 [nilotinib]
# Procedure, shortened: as §1
# [11] = compound: Cc1nc(Nc2n[nH]c3c2CN(C(=O)N[C@H](CN(C)C)c2ccccc2)C3(C)C)c2sccc2n1
# Procedure, shortened: as §1
# [12] = compound: Cc1nc(Nc2ncc(C(=O)Nc3c(C)cccc3Cl)s2)cc(N2CCN(CCO)CC2)n1 [dasatinib]
# Procedure, shortened: as §1
# [13] = compound: Cc1ncc(-c2ccnc(Nc3ccc(S(C)(=O)=O)cc3)n2)n1C(C)C
# Procedure, shortened: as §1
# [14] = compound: Cn1cc(-c2ccc3c(c2)CCN3C(=O)Cc2cccc(C(F)(F)F)c2)c2c(N)ncnc21
# Procedure, shortened: as §1
# [15] = compound: Cn1cc(-c2ccc3nnc(C(F)(F)c4ccc5ncccc5c4)n3n2)cn1
# Procedure, shortened: as §1
# [16] = compound: Cn1cncc1[C@@](N)(c1ccc(Cl)cc1)c1ccc2c(c1)c(-c1cccc(Cl)c1)cc(=O)n2C [tipifarnib]
# Procedure, shortened: as §1
# [17] = compound: FC(F)(F)c1ccc(/C=C/c2nc(COc3ccc(CCCCn4ccnn4)cc3)co2)cc1 [mubritinib]
# Procedure, shortened: as §1
# [18] = compound: C[C@@H]1COCCN1C2=NC(=NC(=C2)C3(CC3)S(=O)(=O)C)C4=C5C=CNC5=CC=C4
# Procedure, shortened: as §1
# [19] = compound: Cc1cc(Nc2cc(CN3CCOCC3)c3nc(C)c(Cc4ccc(Cl)cc4F)n3n2)n[nH]1 [gandotinib]
# Procedure, shortened: as §1
# [20] = compound: Cc1cccc(CC(=O)N2CCc3c2ccc(-c2cn(C)c4ncnc(N)c24)c3F)n1
# Procedure, shortened: as §1
Target,log2 fold change [1],log2 fold change [2],log2 fold change [3],log2 fold change [4],log2 fold change [5],log2 fold change [6],log2 fold change [7],log2 fold change [8],log2 fold change [9],log2 fold change [10],log2 fold change [11],log2 fold change [12],log2 fold change [13],log2 fold change [14],log2 fold change [15],log2 fold change [16],log2 fold change [17],log2 fold change [18],log2 fold change [19],log2 fold change [20]
ELOVL6 (UniProt Q9H5J4),inactive: -0.072,inactive: -0.231,inactive: 0.029,inactive: 0.141,inactive: -0.117,inactive: -0.11,inactive: 0.009,inactive: -0.236,inactive: -0.208,inactive: 0.04,inactive: -0.033,inactive: 0.089,inactive: -0.041,inactive: 0.049,inactive: 0.036,inactive: -0.125,inactive: 0.103,,,
EFHD1 (UniProt Q9BUP0),inactive: 0.038,,inactive: 0.055,inactive: -0.04,inactive: -0.09,inactive: -0.168,,,,inactive: -0.034,inactive: 0.403,inactive: 0.284,inactive: 0.199,inactive: -0.034,,,,inactive: -0.178,inactive: 0.128,inactive: -0.055
"EPB41, A0A2R8Y6D0",inactive: 0.191,,inactive: -0.084,,inactive: -0.063,,,inactive: -0.09,inactive: -0.128,inactive: 0.168,inactive: 0.05,,inactive: -0.114,inactive: -0.023,inactive: 0.082,inactive: 0.178,inactive: 0.03,,inactive: 0.088,inactive: -0.096
EEF1B2 (UniProt P24534),inactive: 0.003,inactive: -0.018,inactive: 0.092,,,inactive: 0.013,inactive: -0.065,inactive: -0.024,inactive: 0.006,inactive: -0.042,inactive: -0.03,inactive: 0.026,inactive: 0.043,inactive: -0.057,inactive: -0.054,inactive: -0.109,inactive: 0.058,inactive: -0.073,inactive: -0.043,inactive: 0.025
EMD (UniProt P50402),inactive: 0.042,active: -0.215,inactive: 0.018,,,inactive: 0.015,inactive: 0.018,inactive: -0.092,inactive: -0.167,inactive: 0.074,inactive: -0.071,inactive: -0.017,inactive: -0.045,inactive: -0.005,inactive: -0.098,inactive: 0.087,inactive: 0.031,inactive: 0.019,inactive: -0.047,inactive: -0.081
EIF3J (UniProt O75822),inactive: -0.024,inactive: -0.012,inactive: -0.035,,,inactive: 0.005,inactive: -0.022,inactive: 0.099,inactive: -0.067,inactive: 0.001,inactive: -0.019,inactive: -0.018,inactive: 0.008,inactive: 0.022,inactive: -0.014,inactive: -0.013,inactive: 0.033,inactive: 0.009,inactive: -0.157,active: 0.266
ENTPD4 (UniProt Q9Y227),inactive: -0.044,inactive: -0.041,,,inactive: -0.045,,inactive: 0.094,,inactive: 0.034,,,,,,,,,inactive: -0.088,inactive: 0.069,inactive: 0.14
EIF4A1 (UniProt P60842),inactive: -0.055,inactive: -0.058,inactive: -0.015,,,inactive: 0.047,inactive: 0.025,inactive: -0.11,inactive: 0.032,inactive: -0.135,inactive: -0.063,inactive: -0.114,inactive: -0.047,inactive: 0.036,inactive: -0.022,inactive: -0.058,inactive: -0.08,inactive: 0.03,inactive: -0.206,inactive: 0.014
EID1 (UniProt Q9Y6B2),inactive: -0.14,,,,,,,,,inactive: -0.022,inactive: -0.084,,inactive: -0.032,,,inactive: -0.097,inactive: 0.208,inactive: -0.424,inactive: 0.275,inactive: -0.438
ENO2 (UniProt U3KQQ1),inactive: 0.244,inactive: 0.169,,,,,inactive: -0.115,,inactive: -0.129,,,,,,,inactive: 0.304,,,inactive: 0.358,inactive: -1.11
EFL1 (UniProt Q7Z2Z2),inactive: 0.02,inactive: -0.055,inactive: 0.016,,,inactive: 0.029,inactive: -0.013,inactive: -0.018,inactive: -0.043,inactive: -0.147,inactive: -0.052,inactive: -0.077,inactive: 0.003,inactive: 0.021,inactive: 0.028,inactive: -0.026,inactive: -0.109,inactive: 0.074,inactive: -0.056,inactive: -0.014
ELOVL5 isoform 2 (UniProt Q9NYP7),inactive: 0.038,,inactive: -0.004,,,inactive: 0.082,,inactive: -0.311,inactive: -0.166,inactive: -0.182,inactive: 0.021,inactive: -0.147,inactive: -0.054,inactive: 0.063,inactive: 0.011,inactive: -0.204,inactive: 0.068,inactive: 0.048,inactive: -0.34,inactive: 0.124
ENTPD7 (UniProt Q9NQZ7),inactive: 0.256,inactive: 0.084,,,,inactive: 0.014,inactive: 0.025,,inactive: -0.165,inactive: -0.104,inactive: -0.17,inactive: -0.235,inactive: 0.056,,,inactive: 0.163,inactive: 0.097,inactive: -0.037,,
EEF1A1 (UniProt P68104),inactive: 0.081,inactive: 0.001,inactive: -0.474,,,inactive: -0.004,inactive: -0.062,inactive: 0.115,inactive: -0.114,inactive: 0.042,inactive: -0.113,inactive: -0.116,inactive: 0.001,inactive: 0.044,inactive: -0.063,inactive: -0.057,inactive: -0.033,inactive: -0.022,,
ELF1 (UniProt P32519),inactive: 0.093,inactive: -0.06,inactive: -0.007,,,inactive: 0.057,inactive: -0.039,inactive: -0.038,,inactive: 0.096,inactive: -0.028,inactive: -0.134,inactive: 0.122,inactive: 0.003,inactive: 0.049,inactive: -0.024,,inactive: -0.006,,
EIF3J isoform 2 (UniProt O75822),inactive: 0.035,inactive: 0.049,,,,inactive: -0.038,inactive: 0.011,,inactive: -0.033,inactive: -0.101,inactive: -0.016,inactive: 0.017,inactive: -0.013,,,inactive: 0.078,inactive: 0.1,inactive: -0.043,,
EGR1 (UniProt P18146),inactive: 0.063,,inactive: -0.518,,,,,inactive: 0.36,inactive: -0.257,inactive: -0.001,inactive: -0.352,,inactive: -0.295,inactive: -0.24,inactive: -0.106,inactive: 0.139,inactive: -0.121,inactive: 0.259,inactive: -0.536,inactive: 0.141

# Shown tab-delimited: part of the list above
Target	log2 fold change [1]	log2 fold change [2]	log2 fold change [3]	log2 fold change [4]	log2 fold change [5]	log2 fold change [6]	log2 fold change [7]	log2 fold change [8]	log2 fold change [9]	log2 fold change [10]	log2 fold change [11]	log2 fold change [12]	log2 fold change [13]	log2 fold change [14]	log2 fold change [15]	log2 fold change [16]	log2 fold change [17]	log2 fold change [18]	log2 fold change [19]	log2 fold change [20]
ELOVL6 (UniProt Q9H5J4)	inactive: -0.072	inactive: -0.231	inactive: 0.029	inactive: 0.141	inactive: -0.117	inactive: -0.11	inactive: 0.009	inactive: -0.236	inactive: -0.208	inactive: 0.04	inactive: -0.033	inactive: 0.089	inactive: -0.041	inactive: 0.049	inactive: 0.036	inactive: -0.125	inactive: 0.103			
EFHD1 (UniProt Q9BUP0)	inactive: 0.038		inactive: 0.055	inactive: -0.04	inactive: -0.09	inactive: -0.168				inactive: -0.034	inactive: 0.403	inactive: 0.284	inactive: 0.199	inactive: -0.034				inactive: -0.178	inactive: 0.128	inactive: -0.055
